Experimental data from the supplement of paper PMC8728848.
The other results are listed elsewhere or left out.

How the values were obtained:
Assay in all cases: glycan array binding signal (z-score within array); higher = stronger binding
Conditions in all cases: glycan notation: IUPAC condensed, linker removed
[1] = target: Gal(b1-4)GlcNAc(b1-2)[Gal(b1-4)GlcNAc(b1-6)]Man(a1-6)[Gal(b1-4)GlcNAc(b1-2)Man(a1-3)]Man(b1-4)GlcNAc(b1-4)[Fuc(a1-6)]GlcNAc
Procedure, shortened: (§1)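 The Consortium for Functional Glycomics database supplied 3228 glycan arrays, of which those lacking an available protein sequence were dropped. The binding signal, a within-array Z-score, was averaged across arrays of the same protein sequence and across linkers. Negative scores can be read as non-binding.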

[2] = target: Gal(b1-4)GlcNAc(b1-2)[Gal(b1-4)GlcNAc(b1-6)]Man(a1-6)[GlcNAc(b1-4)][Gal(b1-4)GlcNAc(b1-2)Man(a1-3)]Man(b1-4)GlcNAc(b1-4)GlcNAc
Procedure, shortened: as §1

[3] = target: Gal(b1-4)GlcNAc(b1-2)[Gal(b1-4)GlcNAc(b1-6)]Man(a1-6)[GlcNAc(b1-4)][Gal(b1-4)GlcNAc(b1-2)[Gal(b1-4)GlcNAc(b1-4)]Man(a1-3)]Man(b1-4)GlcNAc(b1-4)[Fuc(a1-6)]GlcNAc
Procedure, shortened: as §1

[4] = target: Gal(b1-4)GlcNAc(b1-3)Gal(b1-3)GalNAc
Procedure, shortened: as §1

[5] = target: Gal(b1-4)GlcNAc(b1-3)Gal(b1-3)GlcNAc
Procedure, shortened: as §1

[6] = target: Gal(b1-4)GlcNAc(b1-3)Gal(b1-4)Glc
Procedure, shortened: as §1

[7] = target: Gal(b1-4)GlcNAc(b1-3)Gal(b1-4)GlcNAc
Procedure, shortened: as §1

[8] = target: Gal(b1-4)GlcNAc(b1-3)Gal(b1-4)GlcNAc(b1-2)Man(a1-3)[Gal(b1-4)GlcNAc(b1-3)Gal(b1-4)GlcNAc(b1-2)Man(a1-6)]Man(b1-4)GlcNAc(b1-4)GlcNAc
Procedure, shortened: as §1

[9] = target: Gal(b1-4)GlcNAc(b1-3)Gal(b1-4)GlcNAc(b1-2)Man(a1-3)[Gal(b1-4)GlcNAc(b1-3)Gal(b1-4)GlcNAc(b1-2)Man(a1-6)]Man(b1-4)GlcNAc(b1-4)[Fuc(a1-6)]GlcNAc
Procedure, shortened: as §1

[10] = target: Gal(b1-4)GlcNAc(b1-3)Gal(b1-4)GlcNAc(b1-2)[Gal(b1-4)GlcNAc(b1-3)Gal(b1-4)GlcNAc(b1-6)]Man(a1-6)[Gal(b1-4)GlcNAc(b1-3)Gal(b1-4)GlcNAc(b1-2)Man(a1-3)]Man(b1-4)GlcNAc(b1-4)GlcNAc
Procedure, shortened: as §1

[11] = target: Gal(b1-4)GlcNAc(b1-3)Gal(b1-4)GlcNAc(b1-2)[Gal(b1-4)GlcNAc(b1-3)Gal(b1-4)GlcNAc(b1-6)]Man(a1-6)[Gal(b1-4)GlcNAc(b1-3)Gal(b1-4)GlcNAc(b1-2)Man(a1-3)]Man(b1-4)GlcNAc(b1-4)[Fuc(a1-6)]GlcNAc
Procedure, shortened: as §1

[12] = target: Gal(b1-4)GlcNAc(b1-3)Gal(b1-4)GlcNAc(b1-3)Gal(b1-4)GlcNAc
Procedure, shortened: as §1

[13] = target: Gal(b1-4)GlcNAc(b1-3)Gal(b1-4)GlcNAc(b1-3)Gal(b1-4)GlcNAc(b1-2)Man(a1-3)[Gal(b1-4)GlcNAc(b1-3)Gal(b1-4)GlcNAc(b1-3)Gal(b1-4)GlcNAc(b1-2)Man(a1-6)]Man(b1-4)GlcNAc(b1-4)GlcNAc
Procedure, shortened: as §1

[14] = target: Gal(b1-4)GlcNAc(b1-3)Gal(b1-4)GlcNAc(b1-3)Gal(b1-4)GlcNAc(b1-2)Man(a1-3)[Gal(b1-4)GlcNAc(b1-3)Gal(b1-4)GlcNAc(b1-3)Gal(b1-4)GlcNAc(b1-2)Man(a1-6)]Man(b1-4)GlcNAc(b1-4)[Fuc(a1-6)]GlcNAc
Procedure, shortened: as §1

[15] = target: Gal(b1-4)GlcNAc(b1-3)Gal(b1-4)GlcNAc(b1-3)Gal(b1-4)GlcNAc(b1-2)[Gal(b1-4)GlcNAc(b1-3)Gal(b1-4)GlcNAc(b1-3)Gal(b1-4)GlcNAc(b1-6)]Man(a1-6)[Gal(b1-4)GlcNAc(b1-3)Gal(b1-4)GlcNAc(b1-3)Gal(b1-4)GlcNAc(b1-2)Man(a1-3)]Man(b1-4)GlcNAc(b1-4)[Fuc(a1-6)]GlcNAc
Procedure, shortened: as §1

[16] = target: Gal(b1-4)GlcNAc(b1-3)Gal(b1-4)GlcNAc(b1-3)Gal(b1-4)GlcNAc(b1-3)Gal(b1-4)GlcNAc(b1-2)Man(a1-3)[Gal(b1-4)GlcNAc(b1-3)Gal(b1-4)GlcNAc(b1-3)Gal(b1-4)GlcNAc(b1-3)Gal(b1-4)GlcNAc(b1-2)Man(a1-6)]Man(b1-4)GlcNAc(b1-4)GlcNAc
Procedure, shortened: as §1

[17] = target: Gal(b1-4)GlcNAc(b1-3)Gal(b1-4)GlcNAc(b1-3)Gal(b1-4)GlcNAc(b1-3)Gal(b1-4)GlcNAc(b1-2)Man(a1-3)[Gal(b1-4)GlcNAc(b1-3)Gal(b1-4)GlcNAc(b1-3)Gal(b1-4)GlcNAc(b1-3)Gal(b1-4)GlcNAc(b1-2)Man(a1-6)]Man(b1-4)GlcNAc(b1-4)[Fuc(a1-6)]GlcNAc
Procedure, shortened: as §1

[18] = target: Gal(b1-4)GlcNAc(b1-3)Gal(b1-4)GlcNAc(b1-3)Gal(b1-4)GlcNAc(b1-3)Gal(b1-4)GlcNAc(b1-2)[Gal(b1-4)GlcNAc(b1-3)Gal(b1-4)GlcNAc(b1-3)Gal(b1-4)GlcNAc(b1-3)Gal(b1-4)GlcNAc(b1-6)]Man(a1-6)[Gal(b1-4)GlcNAc(b1-3)Gal(b1-4)GlcNAc(b1-3)Gal(b1-4)GlcNAc(b1-3)Gal(b1-4)GlcNAc(b1-2)Man(a1-3)]Man(b1-4)GlcNAc(b1-4)[Fuc(a1-6)]GlcNAc
Procedure, shortened: as §1

[19] = target: Gal(b1-4)GlcNAc(b1-3)Gal(b1-4)GlcNAc(b1-3)Gal(b1-4)GlcNAc(b1-3)Gal(b1-4)GlcNAc(b1-3)Gal(b1-4)GlcNAc(b1-2)Man(a1-3)[Gal(b1-4)GlcNAc(b1-3)Gal(b1-4)GlcNAc(b1-3)Gal(b1-4)GlcNAc(b1-3)Gal(b1-4)GlcNAc(b1-3)Gal(b1-4)GlcNAc(b1-2)Man(a1-6)]Man(b1-4)GlcNAc(b1-4)GlcNAc
Procedure, shortened: as §1

[20] = target: Gal(b1-4)GlcNAc(b1-3)Gal(b1-4)GlcNAc(b1-3)Gal(b1-4)GlcNAc(b1-3)Gal(b1-4)GlcNAc(b1-3)Gal(b1-4)GlcNAc(b1-2)Man(a1-3)[Gal(b1-4)GlcNAc(b1-3)Gal(b1-4)GlcNAc(b1-3)Gal(b1-4)GlcNAc(b1-3)Gal(b1-4)GlcNAc(b1-3)Gal(b1-4)GlcNAc(b1-2)Man(a1-6)]Man(b1-4)GlcNAc(b1-4)[Fuc(a1-6)]GlcNAc
Procedure, shortened: as §1

[21] = target: Gal(b1-4)GlcNAc(b1-3)Gal(b1-4)GlcNAc(b1-3)Gal(b1-4)GlcNAc(b1-3)Gal(b1-4)GlcNAc(b1-3)Gal(b1-4)GlcNAc(b1-2)[Gal(b1-4)GlcNAc(b1-3)Gal(b1-4)GlcNAc(b1-3)Gal(b1-4)GlcNAc(b1-3)Gal(b1-4)GlcNAc(b1-3)Gal(b1-4)GlcNAc(b1-6)]Man(a1-6)[Gal(b1-4)GlcNAc(b1-3)Gal(b1-4)GlcNAc(b1-3)Gal(b1-4)GlcNAc(b1-3)Gal(b1-4)GlcNAc(b1-3)Gal(b1-4)GlcNAc(b1-2)Man(a1-3)]Man(b1-4)GlcNAc(b1-4)[Fuc(a1-6)]GlcNAc
Procedure, shortened: as §1

[22] = target: Gal(b1-4)GlcNAc(b1-3)Gal(b1-4)GlcNAc(b1-3)Gal(b1-4)GlcNAc(b1-3)Gal(b1-4)GlcNAc(b1-3)Gal(b1-4)GlcNAc(b1-3)Gal(b1-4)GlcNAc(b1-2)Man(a1-3)[Gal(b1-4)GlcNAc(b1-3)Gal(b1-4)GlcNAc(b1-3)Gal(b1-4)GlcNAc(b1-3)Gal(b1-4)GlcNAc(b1-3)Gal(b1-4)GlcNAc(b1-3)Gal(b1-4)GlcNAc(b1-2)Man(a1-6)]Man(b1-4)GlcNAc(b1-4)GlcNAc
Procedure, shortened: as §1

[23] = target: Gal(b1-4)GlcNAc(b1-3)Gal(b1-4)GlcNAc(b1-3)GalNAc
Procedure, shortened: as §1

B1: Actd5 (Actinidia), P84527 (protein)
chain: ISSCNGPCRDLNDCDGQLICIKGKCNDDPQVGTHICRGTTHSHQPGGCKPSGTLTCRGKSYPTYDCSPPVTSSTPAKLTNNDFSEGGDDGGPSECDESYHNNNERIVALSTGWYNGGSRCGKMIRITASNGKSVSAKVVDECDSRHGCDKEHAGQPPCRNNIVDGSNAVWSALGLDKNVGVVDITWSMA
For B1, the “glycan array binding signal (z-score)” value [1] was 0.729, the “glycan array binding signal (z-score)” value [2] was 0 and the “glycan array binding signal (z-score)” value [3] was 0.095. The “glycan array binding signal (z-score)” value [4] was -0.619, the “glycan array binding signal (z-score)” value [5] was -0.59 and the “glycan array binding signal (z-score)” value [6] was 0.688. The “glycan array binding signal (z-score)” value [7] was -0.256, the “glycan array binding signal (z-score)” value [8] was 3.9 and the “glycan array binding signal (z-score)” value [9] was 2.17. The “glycan array binding signal (z-score)” value [10] was 0.991, the “glycan array binding signal (z-score)” value [11] was 0.632 and the “glycan array binding signal (z-score)” value [12] was -1. For the same binder, the “glycan array binding signal (z-score)” value [13] was 2.6, the “glycan array binding signal (z-score)” value [14] was 1.54 and the “glycan array binding signal (z-score)” value [15] was 1.33. The “glycan array binding signal (z-score)” value [16] was 1.34, the “glycan array binding signal (z-score)” value [17] was 0.846 and the “glycan array binding signal (z-score)” value [18] was 0.319. The “glycan array binding signal (z-score)” value [19] was 0.25, the “glycan array binding signal (z-score)” value [20] was 1.17 and the “glycan array binding signal (z-score)” value [21] was 0.644. The “glycan array binding signal (z-score)” value [22] was -0.135 and the “glycan array binding signal (z-score)” value [23] was 2.99.
